{
  "source": "patent US11219664B2",
  "about": "“Composition for diagnosing, preventing, or treating vascular smooth muscle cell proliferative diseases using FGF12” (CHUNG-ANG UNIVERSITY INDUSTRY ACADEMIC COOPERATION …, priority 2015, dated 2022)",
  "tested_on": "HASMCs",
  "experiment": "FGF12 expression by RT-PCR in PDGF-BB-stimulated HASMCs treated with signaling inhibitors",
  "format": "cell-based, human",
  "conditions": "HASMCs stimulated with PDGF-BB (50 ng/ml), inhibitor pre-treatment 24 hours",
  "note": "At least one structure is not confirmed: it was looked up by name or label, or the drawing left a doubt.",
  "data": [
    {"smiles": "O=c1cc(N2CCOCC2)oc2c(-c3ccccc3)cccc12", "note": "[LY294002]", "values": [
      {"measurement": "effect on PDGF-BB-induced decrease in FGF12 expression", "result": "abolished the PDGF-BB-induced decrease in FGF12 expression"}
    ]}
  ]
}
